In paper PMC12040169 (PLOS Biology, 2025):
The other results are listed elsewhere or left out.

Each molecule was assayed on T1, CTL2-GFP (C. trachomatis L2/434/Bu, GFP-expressing). Conditions: bulk GFP, single well; 28.5 h, 10 µM; inhibitor.
T1 construct: L2/434/Bu, GFP-expressing
Design: species or system HeLa; Intracellular C. trachomatis growth in HeLa cells, bulk GFP fluorescence relative to DMSO

Which “% of control remaining” value does the source give for `O=C(NCc1cccc2ccccc12)C1(c2ccccc2)CCCC1` [CBK149534] here?
Its value is 110.578%.

`O=C(COc1ccc2ccccc2c1)NCCN1CCOCC1` [CBK265444] was tested. Which “% of control remaining” value did it give?
The value was 128.884%.

For `NC(=S)c1c(Cl)cc(C(F)(F)F)cc1Cl` [CBK011349], which “% of control remaining” value is on record?
The value was 103.105%.

For `COc1ccc([C@@]23CC[C@@H](NC(=O)Nc4cc(F)c(C#N)cc4F)C[C@@H]2N(C)CC3)cc1OC` [CBK073979T], which “% of control remaining” value is on record?
The value was 142.933%.

For `COc1ccc(C[C@@H]2NC(=O)[C@H]3CN(C(=O)c4cccc(F)c4)CCN3C2=O)cc1` [CBK289604], which “% of control remaining” value is on record?
The value was 130.336%.

For `O=C(Nc1ccc(Cl)cc1)Nc1cc(S(=O)(=O)N2CCCC2)ccc1Cl` [CBK266122], which “% of control remaining” value is on record?
Its value is 127.032%.

How did the “% of control remaining” value turn out when `Cn1cc(C(c2ccccc2OCC(=O)O)c2cn(C)c3ccccc23)c2ccccc21` [CBK266410] was run?
The value was 181.569%.

Which “% of control remaining” value does the source give for `Cn1cccc1C(=O)NCc1ccccc1OC1CCNC1` (stereo not drawn) [CBK029463T] here?
Its value is 100%.

`N#C/C(=C/c1cn(CC(=O)O)c2ccccc12)c1ccc(C(=O)O)cc1` [CBK268977] was tested. Which “% of control remaining” value did it give?
Its value is 126.834%.

Which “% of control remaining” value does the source give for `c1ccc2[nH]c(CCSCCc3nc4ccccc4[nH]3)nc2c1` [CBK023949] here?
The value was 93.044%.

`Cc1cc(S(=O)(=O)N(c2ccc(C(C)(C)C)cc2)C2CCNCC2)c(C)s1` [CBK165075T] was tested. Which “% of control remaining” value did it give?
Its value is 63.3533%.

Which “% of control remaining” value does the source give for `CC1(C)COC(CCN2CCN(c3ccc(F)cc3)CC2)c2ccccc21` (stereo not drawn) [CBK024080C] here?
Its value is 102.766%.

How did the “% of control remaining” value turn out when `CC(=O)Nc1ccc(-c2ccc(C(=O)N3CCN(C(=O)N4CCCC4)CC3)cn2)cc1` [CBK160187] was run?
The value was 101.595%.

With `c1cncc(-c2cn3ccnc3c(NC3CCCCC3)n2)c1` [CBK093606] as the molecule, how does the “% of control remaining” value read?
The value was 100%.

How did the “% of control remaining” value turn out when `Cc1cc(Cc2ccccc2F)cc(C2CCN(C(=O)c3nc4ccc(F)cc4[nH]3)CC2)n1` [CBK285932] was run?
Its value is 84.8176%.

`CC(C)Cn1cnc(S(=O)(=O)N2CCC(OCc3ccncc3)C2)c1` (stereo not drawn) [CBK305456] was tested. Which “% of control remaining” value did it give?
Its value is 118.652%.

For `CN(CC1CCCCC1)C(=O)c1cc2ccsc2[nH]1` [CBK304518], which “% of control remaining” value is on record?
The value was 135.511%.

Which “% of control remaining” value does the source give for `Cc1c(C)n(Cc2ccco2)c2ncnc(N3CCC(C(=O)O)CC3)c12` [CBK307599] here?
Its value is 127.367%.

For `NC(=O)c1c(NC(=O)C2CC(=O)OC23CCCCC3)sc2c1CCCCC2` (stereo not drawn) [CBK264189], which “% of control remaining” value is on record?
Its value is 110.471%.

With `CN(C(=O)C1CCCO1)c1nc2c(s1)CCc1occc1-2` (stereo not drawn) [CBK283483] as the molecule, how does the “% of control remaining” value read?
The value was 101.755%.

How did the “% of control remaining” value turn out when `COc1cc2ccccc2cc1C(=O)Nc1nnc(-c2ccncc2)o1` [CBK287432] was run?
Its value is 139.491%.
